Taken from: PubChem BioAssay AID602196 (INSERM, 2012)

Purpose: 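Knock-downs that protect lung cancer cells from cisplatin or sensitise them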
Cells: human A549 lung cancer cells
Knock-down reagent: siRNA pair against human genes
Time to read-out: 48 h transfection before cisplatin; time from cisplatin to read-out not stated
Treatment: cisplatin at a dose killing half of control-siRNA cells; exact dose and duration not given
Measured: 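Shift in cisplatin death relative to control siRNA, from -50 (all cells die) to +50 (no cells die); siRNAs harmful on their own scored 0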
Direction: two-siRNA summed score (-2 to +2): higher = both siRNAs protect from cisplatin killing; -2 means both sensitise; mean protection from cisplatin (shift in death) and protection from cisplatin (shift in death), siRNA C: higher = protection from cisplatin killing
Call rule: 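Each siRNA scores 0 if harmful alone by LDH or WST-1, otherwise +1 if it reduces and -1 if it increases cisplatin killing; a gene is active when both siRNAs agree (sum +2 or -2)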
Meaning of the calls: active = both siRNAs shift cisplatin killing the same way; inactive = no consistent shift, or siRNA harmful alone
Here is one part, drawn at random, of about 23,000 deposited reagents. 455 of all reagents (2%) count as active. 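Active includes both protection and sensitisation; some change values fall well beyond the stated -50 to +50 range.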 Further read-outs or replicates are left out here. Not given: the amount of reagent.

Gene | two-siRNA summed score (-2 to +2) | mean protection from cisplatin (shift in death) (%) | protection from cisplatin (shift in death), siRNA C (%) | call
PCM1 | 0 | -1.7 | -0.3 | inactive
ZCCHC24 | 0 | 2.9 | -2.5 | inactive
LOC442524 | 1 | 17.5 | 15.2 | inactive
TFDP1 | -1 | -9 | -23.6 | inactive
LOC148756 | 0 | 0.9 | -9.4 | inactive
CNPY4 | 0 | 20.4 | 32.1 | inactive
DYNLT2B | 0 | -1.4 | 5.4 | inactive
GEMIN5 | 0 | -10.2 | -6.6 | inactive
CEND1 | 0 | 0.3 | -10.8 | inactive
PYCARD | 0 | -17.6 | -35.9 | inactive
PLA2G5 | 0 | 6.3 | 0.8 | inactive
GBP2 | 1 | 2.4 | -8.8 | inactive
VPS13A | 0 | 2.1 | 4.9 | inactive
LOC391088 | 0 | 2.7 | -6.8 | inactive
SLC25A38 | 0 | -11.3 | -8.8 | inactive
ENKUR | 0 | -6.3 | -1.2 | inactive
LOC442093 | 0 | 5.3 | 7.8 | inactive
LOC391169 | 0 | 15.3 | 28.3 | inactive
KTN1 | -2 | -43.1 | -27.3 | active
VPS4B | 0 | 7.2 | 5.3 | inactive
TIE1 | 0 | -5.3 | 6.2 | inactive
SLC36A4 | 0 | 9 | 7.3 | inactive
SPEG | 1 | 13.9 | 20.8 | inactive
PI4KA | 1 | 13.9 | 13.3 | inactive
LOC401619 | 0 | 8.9 | 7.9 | inactive
DUSP23 | -1 | -2 | 13.1 | inactive
GPATCH4 | -1 | -2.9 | 11.5 | inactive
TSTD2 | 1 | 10 | 33.2 | inactive
LCE3C | 0 | 4.5 | 9.5 | inactive
LOC401951 | 0 | 5.1 | 3.8 | inactive
CCDC90B | 0 | 1.6 | 7.7 | inactive
ZFAND2B | 0 | 3.7 | 2.6 | inactive
DIXDC1 | 0 | 4.4 | 3.3 | inactive
C1QL2 | 0 | -2.2 | 1.5 | inactive
LOC389666 | 0 | 7.7 | 15.4 | inactive
PDK4 | 2 | 31.2 | 25.8 | active
USF2 | 1 | 4.6 | -12.8 | inactive
MMEL1 | 0 | -4.2 | -0.8 | inactive
MAP3K21 | 1 | 22.6 | 20 | inactive

Targets above whose gene name starts with S or s:
Gene | two-siRNA summed score (-2 to +2) | mean protection from cisplatin (shift in death) (%) | protection from cisplatin (shift in death), siRNA C (%) | call
SLC25A38 | 0 | -11.3 | -8.8 | inactive
SLC36A4 | 0 | 9 | 7.3 | inactive
SPEG | 1 | 13.9 | 20.8 | inactive
